{
  "sequences": {"note": "Sequences of proteins named here, by UniProt entry; tags and fusion partners are left off. Residues count along the entry.", "UniProt Q14674": "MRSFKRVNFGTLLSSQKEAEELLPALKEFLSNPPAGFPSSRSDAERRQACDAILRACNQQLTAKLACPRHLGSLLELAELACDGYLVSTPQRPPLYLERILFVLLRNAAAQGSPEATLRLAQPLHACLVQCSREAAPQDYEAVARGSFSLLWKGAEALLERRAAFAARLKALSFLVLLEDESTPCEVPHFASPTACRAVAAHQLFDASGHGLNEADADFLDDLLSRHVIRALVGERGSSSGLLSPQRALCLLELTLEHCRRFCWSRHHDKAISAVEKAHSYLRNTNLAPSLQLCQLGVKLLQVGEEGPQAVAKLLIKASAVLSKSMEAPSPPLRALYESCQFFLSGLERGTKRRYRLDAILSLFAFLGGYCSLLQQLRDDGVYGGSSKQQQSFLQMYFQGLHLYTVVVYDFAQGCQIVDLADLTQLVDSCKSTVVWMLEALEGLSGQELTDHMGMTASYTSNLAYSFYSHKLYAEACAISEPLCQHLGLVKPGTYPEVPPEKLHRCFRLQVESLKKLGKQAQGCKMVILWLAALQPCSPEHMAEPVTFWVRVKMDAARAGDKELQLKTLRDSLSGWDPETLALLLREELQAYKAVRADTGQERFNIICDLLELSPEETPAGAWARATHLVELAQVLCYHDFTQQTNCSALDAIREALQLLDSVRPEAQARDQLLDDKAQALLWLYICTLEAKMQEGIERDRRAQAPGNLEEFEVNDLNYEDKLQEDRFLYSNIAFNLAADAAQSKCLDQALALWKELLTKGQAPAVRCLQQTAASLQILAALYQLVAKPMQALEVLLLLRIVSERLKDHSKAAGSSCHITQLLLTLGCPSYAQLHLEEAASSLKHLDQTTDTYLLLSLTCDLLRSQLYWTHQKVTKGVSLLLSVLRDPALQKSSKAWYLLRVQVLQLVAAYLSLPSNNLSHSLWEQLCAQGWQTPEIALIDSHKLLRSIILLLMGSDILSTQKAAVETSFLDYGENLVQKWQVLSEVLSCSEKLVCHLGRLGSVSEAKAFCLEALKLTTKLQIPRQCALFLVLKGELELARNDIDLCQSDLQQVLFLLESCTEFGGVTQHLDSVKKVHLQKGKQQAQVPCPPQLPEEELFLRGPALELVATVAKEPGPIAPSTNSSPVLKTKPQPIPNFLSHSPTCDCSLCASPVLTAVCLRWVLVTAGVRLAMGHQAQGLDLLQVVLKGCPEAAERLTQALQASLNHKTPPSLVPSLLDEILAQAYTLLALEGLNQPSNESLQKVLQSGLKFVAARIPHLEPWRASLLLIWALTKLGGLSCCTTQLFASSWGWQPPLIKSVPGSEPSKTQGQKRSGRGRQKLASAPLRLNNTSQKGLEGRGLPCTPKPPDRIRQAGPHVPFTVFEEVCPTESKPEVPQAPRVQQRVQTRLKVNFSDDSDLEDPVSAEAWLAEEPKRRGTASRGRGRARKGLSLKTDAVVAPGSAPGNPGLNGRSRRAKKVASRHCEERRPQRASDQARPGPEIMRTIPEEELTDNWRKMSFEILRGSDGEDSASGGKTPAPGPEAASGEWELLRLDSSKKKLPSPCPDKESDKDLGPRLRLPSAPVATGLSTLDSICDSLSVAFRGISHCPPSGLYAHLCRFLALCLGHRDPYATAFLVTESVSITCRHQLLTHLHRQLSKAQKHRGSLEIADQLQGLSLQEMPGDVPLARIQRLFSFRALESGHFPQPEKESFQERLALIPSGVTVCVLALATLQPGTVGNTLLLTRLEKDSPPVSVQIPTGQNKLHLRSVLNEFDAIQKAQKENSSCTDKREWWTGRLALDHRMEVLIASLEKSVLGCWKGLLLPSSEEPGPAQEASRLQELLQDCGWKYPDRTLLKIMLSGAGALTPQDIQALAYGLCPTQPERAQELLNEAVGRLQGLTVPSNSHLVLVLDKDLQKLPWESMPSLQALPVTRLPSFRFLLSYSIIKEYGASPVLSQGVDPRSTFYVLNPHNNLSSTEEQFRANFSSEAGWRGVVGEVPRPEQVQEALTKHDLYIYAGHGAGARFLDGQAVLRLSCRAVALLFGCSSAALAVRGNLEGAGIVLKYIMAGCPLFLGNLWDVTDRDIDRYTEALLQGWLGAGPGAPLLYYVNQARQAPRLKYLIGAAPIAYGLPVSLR", "UniProt P02545, residues 1-646": "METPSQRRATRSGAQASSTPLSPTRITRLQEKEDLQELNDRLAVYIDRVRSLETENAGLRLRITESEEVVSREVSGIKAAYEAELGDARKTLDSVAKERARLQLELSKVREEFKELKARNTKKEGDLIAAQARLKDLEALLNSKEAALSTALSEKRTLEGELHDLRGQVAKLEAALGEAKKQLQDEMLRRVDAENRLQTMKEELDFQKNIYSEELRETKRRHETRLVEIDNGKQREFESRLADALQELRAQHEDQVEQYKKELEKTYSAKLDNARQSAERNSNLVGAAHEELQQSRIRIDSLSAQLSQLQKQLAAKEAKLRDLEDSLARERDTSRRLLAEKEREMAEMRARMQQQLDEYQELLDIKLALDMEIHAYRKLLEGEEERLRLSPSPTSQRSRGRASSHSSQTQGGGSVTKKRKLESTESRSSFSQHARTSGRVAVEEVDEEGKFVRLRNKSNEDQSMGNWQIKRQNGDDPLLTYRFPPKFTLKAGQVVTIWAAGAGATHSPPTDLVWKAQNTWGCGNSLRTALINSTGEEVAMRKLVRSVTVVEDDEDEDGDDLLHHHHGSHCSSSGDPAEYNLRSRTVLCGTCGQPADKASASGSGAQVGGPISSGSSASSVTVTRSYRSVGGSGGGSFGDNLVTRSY"},
  "source": "paper PMC12540686",
  "molecules": {"B1": {"name": "A/C-type lamin C (LamC) (protein, UniProt Q03427 1-621)", "chain": "MSARRVTLNTRVSRASTSTPVGGASTSSRVGATSPTSPTRTSRQQEKEELQHLNDRLACYIDRMRNLENENSRLTQELNLAQDTVNRETSNLKAVYEKELAAARKLLDETAKEKAKLEIDIKRLWEENDDLKPRLDKKTKEATVAENNARLYENRYNEVNGKYNQSLADRKKFEDQAKELALENERLRRQLDDLRKQLEAETLARVDLENQNQSLREELAFKDQVHTQELTETRSRRQIEISEIDGRLSRQYEAKLQQSLQELRDQYEGQMRINREEIELLYDNEIQNLKAAANRAAQGSALATEEVRLMRTKIDGLNAKLQNLEDTNAGLNARIRELENLLDTERQRHNQYIASLEAELQRMRDEMAHQLQEYQGLMDIKVSLDLEIAAYDKLLCGEERRLNIESPGRPTTDSGISSNGSHLTASASSRSGRVTPSGRRSATPGISGSSAVKRRRTVIDESEDRTLSEYSVNAAAKGDLEIIEADVEGRFIKLHNKGTEEINLTGWQLTRIAGDEELAFKFSRGSKVLGGASVTIWSVDAGTAHDPPNNLVMKKKWPVANSMRSVLANADKEDVASYDRVRANVSSHTSRHRSSGTPSTGFTLGSGAGSTGVRSLFSLLF"}},
  "key": {"[1]": {"target": "human separase, Extra Spindle Pole Bodies-Like 1 (ESPL1) (human (endogenous in SV40-fibroblasts and primary fibroblasts)) (UniProt Q14674)", "experiment": "co-IP; SV40-fibroblast whole cell extracts pre-treated with benzonase nuclease; 5 µg anti-ESPL1 or anti-lamin A antibody on Dynabeads protein G, 1.5 h at RT; western blot for ESPL1 and lamin A"}, "[2]": {"target": "T1, GST-SSE (Drosophila separase fused to GST) (Drosophila) (UniProt Q9VRN6)", "T1 sequence": "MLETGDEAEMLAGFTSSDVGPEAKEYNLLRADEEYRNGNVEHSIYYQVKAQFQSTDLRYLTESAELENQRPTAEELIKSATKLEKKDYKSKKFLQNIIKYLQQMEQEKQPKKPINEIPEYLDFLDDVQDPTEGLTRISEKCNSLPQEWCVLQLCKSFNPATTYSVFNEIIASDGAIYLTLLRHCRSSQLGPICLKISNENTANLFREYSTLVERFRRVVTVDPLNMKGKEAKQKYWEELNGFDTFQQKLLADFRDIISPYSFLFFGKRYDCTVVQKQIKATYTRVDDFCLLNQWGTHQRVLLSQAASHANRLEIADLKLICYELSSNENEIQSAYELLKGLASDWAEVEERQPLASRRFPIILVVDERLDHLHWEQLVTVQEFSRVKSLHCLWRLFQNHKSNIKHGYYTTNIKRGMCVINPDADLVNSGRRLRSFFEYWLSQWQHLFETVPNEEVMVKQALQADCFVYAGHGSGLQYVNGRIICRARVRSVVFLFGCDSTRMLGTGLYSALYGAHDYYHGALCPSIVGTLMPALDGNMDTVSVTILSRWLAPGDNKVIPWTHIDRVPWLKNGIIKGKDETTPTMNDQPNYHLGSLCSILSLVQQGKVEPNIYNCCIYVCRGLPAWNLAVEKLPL", "experiment": "pull-down; GST fusion proteins bound to glutathione sepharose beads as baits, incubated with third instar larval brain extracts for 1 h at 4 °C in 20 mM Hepes KOH, 20 mM NaF, 0.8% NP40; western blot with anti-Dm0 or anti-LamC; only the target purified"}},
  "note": "Results are given in words; binding and its absence hold for the method and conditions named. In cells and extracts the contact can be indirect. Some entries that bind do so weakly or less than the wild type. For some assays here: Sequences can lack the tags named with a protein.",
  "data": [
    {"molecule": "human lamin A (from UniProt P02545 1-646)", "values": [
      {"measurement": "binding", "setting": "[1]", "result": "binds"}
    ]},
    {"molecule": "B1", "values": [
      {"measurement": "binding", "setting": "[2]", "result": "binds"}
    ]}
  ]
}
